Experimental data: PubChem BioAssay AID1347076 (National Center for Advancing Translational Sciences (NCATS), 2019)
In all, about 400,000 compounds went through this assay and about 13,000 (3.2%) were called active. The shares of active, inactive and inconclusive entries below differ from those in the screen. Calls come from the whole dose curve; as a rule, active = well fitted cell-killing curve with a large enough effect; inconclusive = small, poorly fitted or top-dose-only effect, or effect the other way; inactive = flat fitted curve, though single readings scatter. Where the call is inconclusive, the potency comes from a doubtful curve fit. The source holds several records for some structures; these can differ, active in one and inactive in another.
% is set by controls: 0 for no effect and ±100 for the full control effect; potency is the fitted concentration of half-maximal effect.

Assay: qHTS assay for MDR1-selective chemotherapeutics: Primary screen using the drug-selected MDR subline cells KB-V1; note: nearly all actives have a fitted effect of over 60% in size
Conditions: KB-V1 MDR cells viability, CellTiter-Glo, 72 h; activity change, negative = cytotoxicity: at 46.1 µM (top of the series)
In short: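 In this primary screen, KB-V1 cells overexpressing P-gp are incubated with library compounds (lowest to highest concentration) for 72 h at 37 degrees C before a luminescent ATP viability read.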
For `CC(C)(C)OC(=O)N1CCC[C@H]1c1nnc(SCc2ccc(Cl)cc2Cl)o1`, the Potency was inconclusive: 3.66 µM [cytotoxic, full curve]. In the case of `O=C(Cc1ccc(-n2cccc2)cc1)N1CCc2ccccc21`, the Potency is reported as inconclusive: 16.4 µM [cytotoxic, partial curve, poor fit]. For `CCOC(=O)c1sc(NC(=O)c2cc(-c3ccccc3C)nc3ccccc23)c(C#N)c1C`, the Potency was inconclusive: 7.31 µM [cytotoxic, partial curve]. With `C=CCc1cccc(/C=N/NC(=O)CNc2cccc3ccccc23)c1O` the “activity change, negative = cytotoxicity” value was inactive: -22.3%. With `O=C1CCCN1c1ccc(S(=O)(=O)N2CCC(c3ccccc3)CC2)cc1` the Potency was active: 2.59 µM. For `CC(OC(=O)c1cccc(NS(C)(=O)=O)c1)C(=O)Nc1ccc2c(c1)OCO2` (stereo not given), the Potency was inconclusive: 29.1 µM [cytotoxic, single point]. For `Cc1cccc(NC(=O)N(Cc2cc3cc(C)ccc3[nH]c2=O)CC2COCCO2)c1` (stereo not given), the Potency was inconclusive: 20.6 µM [cytotoxic, partial curve]. For `Cc1nc(NC(=O)c2ccccc2)sc1-c1csc(NCCc2ccccc2)n1`, the Potency was inconclusive: 25.9 µM [cytotoxic, single point]. In the case of `CSc1ccc(C2Nc3cccc4cccc(c34)N2)cc1`, the “activity change, negative = cytotoxicity” value is reported as inactive: 4.69%. With `Cc1cc(C)c(NC(=O)C(C)c2cccc(C(=O)c3ccccc3)c2)c(C)c1` (stereo not given) the Potency was inconclusive: 18.4 µM [cytotoxic, single point]. With `O=C(Nc1ccc([N+](=O)[O-])cc1)Nc1ccc(OC(F)F)c(Cl)c1` the Potency was active: 4.61 µM. In the case of `C=C(C)COC(=O)c1ccccc1C(=O)OCC1(C)CO1` (stereo not given), the “activity change, negative = cytotoxicity” value is reported as inactive: -2.69%. For `Cc1ccc(C)c(C(=O)COC(=O)C2CCN(c3ccc(C(F)(F)F)cn3)CC2)c1`, the “activity change, negative = cytotoxicity” value was inactive: -25.4%. For `CCOC(=O)C1CCN(C(=O)COC(=O)/C=C/c2ccc([N+](=O)[O-])cc2)CC1`, the “activity change, negative = cytotoxicity” value was inactive: 4.95%. With `O=C(O)CC(CC(=O)Nc1ccc(C(=O)O)cc1)c1ccccc1` (stereo not given) the Potency was inconclusive: 29.1 µM [rising, single point]. For `COc1ccc(CC(=O)Nc2ccc(-c3nc4ccccc4s3)c(C)c2)cc1OC`, the Potency was inconclusive: 2.31 µM [cytotoxic, full curve]. For `COc1ccc2oc(=O)c(C(=O)N3CCN(c4ccc(C)cc4)CC3)cc2c1`, the “activity change, negative = cytotoxicity” value was inactive: -3.58%. For `COc1ccccc1C(=O)N1CCN=C1c1ccccc1`, the Potency was inconclusive: 18.4 µM [cytotoxic, single point]. For `CC(C(=O)NC1CCCC1)n1c(-c2ccncc2)nc2ccccc21` (stereo not given), the “activity change, negative = cytotoxicity” value was inactive: -8.94%. For `CCOc1ccc2[nH]cc(S(=O)(=O)c3ccc(Cl)cc3)c(=O)c2c1`, the Potency was inconclusive: 0.164 µM [cytotoxic, full curve]. For `COc1ccc(/C=C/C(=O)NC(=S)Nc2ccc(Br)cn2)cc1`, the “activity change, negative = cytotoxicity” value was inactive: 5.77%. In the case of `COc1cc(NC(=O)c2csc(N)n2)cc(C(=O)Nc2cccc(C(F)(F)F)c2)c1`, the Potency is reported as active: 7.31 µM. For `COc1ccc(C(=O)c2sc3nc(-c4ccc(OC)cc4)ccc3c2N)cc1`, the Potency was inconclusive: 13 µM [rising, partial curve, poor fit]. For `Cc1cccc(NC(=O)COC(=O)c2ccc(S(=O)(=O)N3CCCCCC3)cc2)c1`, the Potency was active: 16.4 µM. For `COc1ccc(C(C#N)=Cc2ccccc2OC)cc1`, the Potency was active: 8.2 µM. With `O=C(COc1ccc(/C=N/NC(=O)c2cc3ccccc3o2)cc1Cl)Nc1ccccc1` the Potency was active: 9.2 µM. In the case of `Cc1nn2c(-c3cccc(NC(=O)CN4CCOCC4)c3)nnc2c2ccccc12`, the Potency is reported as inconclusive: 18.4 µM [cytotoxic, partial curve, poor fit]. In the case of `COc1ccccc1/C=C/C1(C(=O)NC2CCCC2)CC(=O)N1c1ccc(C)cc1` (stereo not given), the Potency is reported as active: 2.91 µM. For `CCOc1ncccc1C(=O)N1CCN(S(=O)(=O)c2ccc(Br)cc2Cl)CC1`, the Potency was inconclusive: 5.8 µM [cytotoxic, partial curve]. With `O=C(Nc1ccc(F)cc1)C(c1cccc(F)c1)N1CCN(C(=O)c2ccco2)CC1` (stereo not given) the Potency was inconclusive: 9.2 µM [cytotoxic, partial curve, poor fit]. For `Cc1ccc(CC(=O)NCCC(=O)O)cc1`, the “activity change, negative = cytotoxicity” value was inactive: 10.1%. For `CC1CCCCC1NC(=O)C1CCN(S(=O)(=O)N2CCC3(CC2)OCCO3)CC1` (stereo not given), the Potency was inconclusive: 20.6 µM [cytotoxic, partial curve, poor fit]. With `O=[N+]([O-])c1ccccc1S(=O)(=O)N/C(=N/S(=O)(=O)c1ccccc1)c1ccccc1` the “activity change, negative = cytotoxicity” value was inactive: -1.67%. For `CCn1c(CCNC(=O)c2cccs2)nnc1SCC(=O)Nc1nc(-c2ccccc2)cs1`, the Potency was inconclusive: 29.1 µM [cytotoxic, single point]. For `Cc1nnc(NC(=O)c2nc(S(=O)(=O)Cc3ccccc3C)ncc2Cl)s1`, the Potency was inconclusive: 23.1 µM [cytotoxic, single point]. For `Cc1ccccc1NC(=S)NC(NC(=O)COc1ccccc1)C(Cl)(Cl)Cl` (stereo not given), the Potency was inconclusive: 3.66 µM [cytotoxic, partial curve, poor fit]. For `CC(=O)Nc1nnc(SCc2cc(=O)c3cc(C)ccc3[nH]2)s1`, the Potency was inconclusive: 18.4 µM [rising, partial curve]. For `CC(=O)c1cc(CN2CCN(CCC(C)C)C(CCO)C2)cs1` (stereo not given), the “activity change, negative = cytotoxicity” value was inactive: -11.1%. With `NC(=O)C1CCN(C(=O)c2ccc(Cl)c(S(=O)(=O)N3CCc4ccccc43)c2)CC1` the Potency was inconclusive: 29.1 µM [rising, single point]. For `COc1cccc(NC(=O)CN2CCC(NC(=O)c3ccccc3C)CC2)c1`, the “activity change, negative = cytotoxicity” value was inactive: -3.35%. For `Cn1c(=O)cc(SCC(=O)NCc2ccc(F)cc2)c2ccc(Cl)cc21`, the “activity change, negative = cytotoxicity” value was inactive: 7.69%. For `CCOC(=O)N1CCC(NS(=O)(=O)c2cc(C(=O)OC)n(C)c2)CC1`, the Potency was inconclusive: 3.66 µM [rising, partial curve, poor fit]. For `COc1ccc(-n2c(SCC(=O)NCC3CCCO3)nc3c(c2=O)SC(C)C3)cc1` (stereo not given), the Potency was inconclusive: 6.51 µM [cytotoxic, partial curve, poor fit]. With `O=C1CCN(Cc2ccccc2)C(=S)N1` the “activity change, negative = cytotoxicity” value was inactive: 8.18%. For `O=C(NC1CCCC1)c1cc(-c2ccccc2)nc2ccccc12`, the Potency was inconclusive: 23.1 µM [cytotoxic, single point]. For `O=C(Nc1ccc(Nc2ccncc2)cc1)c1ccc([N+](=O)[O-])cc1`, the “activity change, negative = cytotoxicity” value was inactive: 5.04%. For `Nc1nc(SCC(=O)Nc2ccccc2-c2ccccc2)n[nH]1`, the Potency was inconclusive: 29.1 µM [cytotoxic, single point]. For `Nc1cc(=O)[nH]c(SCCOc2ccccc2)n1`, the Potency was active: 5.17 µM. With `COc1cccc(N(C(=O)c2snc(C(N)=O)c2N)C(C(=O)NCC2CCCO2)c2cccs2)c1` (stereo not given) the Potency was inconclusive: 3.26 µM [rising, partial curve, poor fit]. For `CC(NS(=O)(=O)c1ccc(OCC(=O)Nc2cccc([N+](=O)[O-])c2)cc1)c1ccccc1` (stereo not given), the Potency was inconclusive: 13 µM [cytotoxic, partial curve, poor fit]. With `COc1ccc(C)cc1NC(=O)c1ccccc1NS(=O)(=O)c1cccc2cccnc12` the Potency was inconclusive: 23.1 µM [cytotoxic, partial curve]. For `CCCCCc1cc(=O)oc2c(C(CCN3CCCC(C)C3)c3ccc(OC)cc3)c(OC)cc(OC)c12` (stereo not given), the “activity change, negative = cytotoxicity” value was inactive: -21%. In the case of `Oc1ccc(Cl)cc1CNCc1ccc(Cl)nc1`, the Potency is reported as inconclusive: 29.1 µM [rising, single point]. With `O=C(Cn1nnc(-c2ccccc2)n1)NC(=O)NC1CCCC1` the “activity change, negative = cytotoxicity” value was inactive: -1.79%. With `Cc1cc(/C=C2\SC(N)=NC2=O)c(C)n1-c1ccc(F)cc1` the “activity change, negative = cytotoxicity” value was inactive: 8.05%. For `CCOC(=O)c1noc2nc(C)n(CC(=O)Nc3cc(Cl)ccc3OC)c(=O)c12`, the “activity change, negative = cytotoxicity” value was inactive: 18.9%. In the case of `O=C(CCl)Nc1ccc(S(=O)(=O)Nc2nccs2)cc1`, the Potency is reported as inconclusive: 6.51 µM [cytotoxic, full curve]. With `CC(=O)c1cc(NC(=O)c2cccc(C(F)(F)F)c2)c(=O)oc1/C=C/N(C)C` the Potency was inconclusive: 18.4 µM [cytotoxic, partial curve, poor fit]. For `Cc1ccc(S(=O)(=O)N2CCOCC2)cc1C(=O)OCCOc1cccc(Cl)c1`, the Potency was inconclusive: 29.1 µM [cytotoxic, single point]. With `COc1ccc(CCNC(=O)CSc2nnc(-c3ccccc3)o2)cc1OC` the Potency was active: 20.6 µM. In the case of `CCOC(=O)c1ccc(NC(=S)N(CCN(C)C)Cc2cccs2)cc1`, the Potency is reported as inconclusive: 23.1 µM [cytotoxic, single point]. With `CCOC(=O)c1c(-c2ccccc2)[nH]c2ccc(O)cc12` the “activity change, negative = cytotoxicity” value was inactive: -8.54%. With `C/C(=N\NC(=O)c1cc2ccccc2cc1O)c1cccs1` the Potency was inconclusive: 25.9 µM [cytotoxic, partial curve, poor fit]. In the case of `O=C(NCc1ccccc1Cl)C1CCC(=O)N(CC2CCCCC2)C1` (stereo not given), the Potency is reported as inconclusive: 11.6 µM [cytotoxic, partial curve]. With `COc1ccc(OCCCC(=O)Nc2cccc([N+](=O)[O-])c2)cc1` the Potency was inconclusive: 20.6 µM [cytotoxic, single point]. For `O=C(N=C1c2ccccc2CN1c1ccccc1)c1cccc([N+](=O)[O-])c1`, the Potency was inconclusive: 20.6 µM [cytotoxic, partial curve, poor fit]. With `CNC[C@H]1Oc2ccc(NC(=O)C3CCCCC3)cc2CC(=O)N([C@H](C)CO)C[C@@H]1C` the Potency was inconclusive: 2.59 µM [rising, full curve]. For `COc1cc(CNCc2ccccn2)ccc1OCc1c(Cl)cccc1Cl`, the Potency was inconclusive: 14.6 µM [cytotoxic, partial curve, poor fit]. For `CC1CCCC(C)N1C(=O)C1CC(c2ccc(F)cc2)=NO1` (stereo not given), the Potency was inconclusive: 29.1 µM [cytotoxic, single point]. In the case of `CSc1nc2ccccc2n1Cc1cccc([N+](=O)[O-])c1`, the Potency is reported as inconclusive: 18.4 µM [cytotoxic, partial curve].
